Experimental data as given in PubChem BioAssay AID624297 (National Center for Advancing Translational Sciences (NCATS), 2012).
The whole screen tested about 340,000 compounds, of which about 6,200 (1.8%) were called active. Inconclusive results, whose numbers are uncertain, are shown with a selection of clear calls. Calls follow the shape of the dose curve; as a rule, active = well fitted activation curve with a large enough effect; inconclusive = small, poorly fitted or top-dose-only effect; inactive = no such curve, though single readings can be large or run the other way. Potencies beside an inconclusive call are fits to weak or partial responses and may not hold up.

assay: A quantitative high throughput screen for small molecules that induce DNA re-replication in SW480 colon adenocarcinoma cells.; also: nearly all actives have a fitted effect of over 55% in size; as to re-replication activation: % of control where 0% means no effect; conditions: Hoechst DNA content imaging, 48 h; re-replication activation: at 46.1 µM (top of the series) unless noted
How it was run: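 250 cells/well; 23 nL cpd via pin tool; 48 hr, 37 C, 5% CO2; Hoechst 40 min; imager read of total nuclear intensity, ex 405/em 500-530 nm.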
Potency is read from the fitted curve at half-maximal effect.

Row | Compound | Potency | re-replication activation
1 | Clc1ccc(-c2nc(NCCCN3CCOCC3)c3ccccc3n2)cc1 | inconclusive: 29.1 µM [activator, single point] | –
2 | O=C(/C=C/c1ccc(-c2ccccc2[N+](=O)[O-])o1)c1ccccc1 | inconclusive: 29.1 µM [activator, single point] | –
3 | CCOC(=O)c1cc(N2CCCCC2)nc2ccccc12 | inconclusive: 20.6 µM [activator, partial curve] | –
4 | COc1ccnc2c1c(=O)n(Cc1ccc(Cl)cc1)c(=O)n2C | inconclusive: 20.6 µM [activator, single point] | –
5 | Cc1ccc(NC(=S)N2CCC(c3nc4ccccc4s3)CC2)cc1C | – | inactive: -5.47%
6 | COc1cccc2cc(C(=O)N(Cc3cccs3)CC3CCCO3)c(=O)oc12 (centres undefined) | inconclusive: 18.4 µM [activator, partial curve, poor fit] | –
7 | O=C(NCC(c1cccs1)N1CCOCC1)c1ccc(Cl)nc1 (centres undefined) | inconclusive: 20.6 µM [activator, single point] | –
8 | CC(=O)Nc1ccc(NC(=O)Cn2nc(C(=O)Nc3ccc(C)cc3)ccc2=O)cc1 | inconclusive: 29.1 µM [activator, single point] | –
9 | Fc1ccc(N2CCN(Cc3ccccn3)CC2)cc1 | – | inactive: -1.16%
10 | CCCCC(=O)NC(c1ccc(C(C)C)cc1)c1ccc2cccnc2c1O (centres undefined) | inconclusive: 0.259 µM [activator, full curve, poor fit] | –
11 | Cc1ccc(S(=O)(=O)Nc2ccccc2N2CCCCC2)cc1 | inconclusive: 29.1 µM [activator, single point] | –
12 | O=C(CCl)NCCN1C(=O)S/C(=C\c2cccnc2)C1=O | inconclusive: 29.1 µM [activator, single point] | –
13 | COc1ccc(/C=N/NC(=O)c2cccnc2)cc1COc1ccc(NC(C)=O)cc1 | active: 8.2 µM | –
14 | C=CCn1c(Cc2ccccc2)nc2c(cnn2-c2ccccc2)c1=O | – | inactive: -0.647%
15 | CCCc1cc(=O)n2nc(N3CCC(C(=O)NCc4ccco4)CC3)sc2n1 | – | inactive: -0.746%
16 | O=[N+]([O-])c1ccc(-c2cn3c(n2)SCC3)cc1 | inconclusive: 29.1 µM [activator, single point] | –
17 | Nc1ccc(S(=O)(=O)Nc2nccc(/C=C/c3ccc(Cl)cc3Cl)n2)cc1 | inconclusive: 18.4 µM [activator, single point] | –
18 | COc1cc2c(cc1NC(=O)c1cccc(S(=O)(=O)N(C)C)c1)oc1ccccc12 | inconclusive: 23.1 µM [activator, partial curve, poor fit] | –
19 | COc1ccc(CC(=O)NCC(=O)N/N=C/c2cc(Br)ccc2OC)cc1 | inconclusive: 29.1 µM [activator, single point] | –
20 | COc1ccc(C(=O)NCCCN2CCOCC2)cc1OC | – | inactive: -3.38%
21 | CN(C(=O)CN1C(=O)/C(=C/c2ccccc2F)SC1=S)C1CCS(=O)(=O)C1 (centres undefined) | – | inactive: 3.61%
22 | CC(C(=O)Nc1ccc(OCc2ccccc2)cc1)N1CCCC1 (centres undefined) | inconclusive: 5.62 µM [activator, single point] | –

Row | Compound | Potency | re-replication activation
23 | O=C(N=c1ccn(-c2nc3ccccc3nc2NS(=O)(=O)c2ccc(Cl)cc2)cc1)c1cccs1 | inconclusive: 4.61 µM [activator, full curve, poor fit] | –
24 | COc1ccc(C(=O)O/N=C(\N)Cc2ccc(Cl)cc2Cl)cc1OC | inconclusive: 6.51 µM [activator, single point] | –
25 | Cc1ccc(CNC(=O)CCS(=O)(=O)c2ccc3c(c2)oc(=O)n3C)cc1 | inconclusive: 4.11 µM [activator, full curve, poor fit] | –
26 | CCc1ccc(CN2CCC(Oc3ccc(C(=O)N4CCCCC4)cc3)CC2)cc1 | inconclusive: 29.1 µM [activator, single point] | –
27 | CCc1ccc(NC(=O)c2cnn3c(C(F)F)cc(C)nc23)cc1 | – | inactive: 1.01%
28 | CNCCCOc1ccc(Cl)cc1C(C)(C)C | inconclusive: 23.1 µM [activator, single point] | –
29 | CCC(CC)NC(=O)/C=C/c1ccccc1Cl | inconclusive: 0.103 µM [activator, full curve, poor fit] | –
30 | O=C(O)CCNC(=O)c1ccc(NC(=O)Cc2ccc(Cl)cc2)cc1 | – | inactive: 9.98%
31 | CCOC(=O)C1=C(COC(=O)/C=C/c2ccc(SC)cc2)NC(=O)NC1C (centres undefined) | – | inactive: -284%
32 | O=C(Nc1ccc(Cl)c(S(=O)(=O)N2CCOCC2)c1)c1n[nH]c(=O)c2ccccc12 | inconclusive: 29.1 µM [activator, single point] | –
33 | Cc1cc(=O)c2c(o1)C(=O)c1occc1C2=O | inconclusive: 20.6 µM [activator, single point] | –
34 | N#Cc1c2c(c(NCCCN3CCOCC3)n3c1nc1ccccc13)CCC2 | inconclusive: 18.4 µM [activator, single point] | –
35 | O=C1CCN(c2ccc([N+](=O)[O-])cc2F)CC1 | – | inactive: -0.407%
36 | COc1cc(C(=S)N2CCN(c3ccccc3Cl)CC2)cc(O)c1O | inconclusive: 23.1 µM [activator, single point] | –
37 | Cc1cc(Nc2ncc(Cl)cc2Cl)n(-c2ccccc2C)n1 | inconclusive: 32.6 µM [activator, single point] | –
38 | Nc1nonc1C(=O)N/N=C/c1cc(Br)ccc1O | – | inactive: -5.72%
39 | CCOC(=O)c1sc(NC(=O)CSc2nnnn2-c2ccccc2)nc1C | inconclusive: 0.58 µM [activator, partial curve, poor fit] | –
40 | N#Cc1c(-c2ccccc2)c(-c2ccccc2)n[nH]c1=O | inconclusive: 29.1 µM [activator, single point] | –
41 | O=C(Oc1c(-c2ccco2)oc2ccccc2c1=O)c1cccnc1 | inconclusive: 20.6 µM [activator, single point] | –
42 | Cc1cc(C)nc(-n2nc(C)cc2NC(=O)c2ccc(F)cc2F)n1 | inconclusive: 29.1 µM [activator, single point] | –
43 | Cc1ccc(-c2nc3cccnc3s2)cc1NS(=O)(=O)c1ccc2c(c1)OCCO2 | inconclusive: 23.1 µM [activator, single point] | –
44 | O=[N+]([O-])c1ccc(Oc2ccc(S(=O)(=O)N3CCOCC3)cn2)cc1 | – | inactive: -8.4%

3 entries drawn at random from the list so far:
Row | Compound | Potency | re-replication activation
9 | Fc1ccc(N2CCN(Cc3ccccn3)CC2)cc1 | – | inactive: -1.16%
22 | CC(C(=O)Nc1ccc(OCc2ccccc2)cc1)N1CCCC1 (centres undefined) | inconclusive: 5.62 µM [activator, single point] | –
28 | CNCCCOc1ccc(Cl)cc1C(C)(C)C | inconclusive: 23.1 µM [activator, single point] | –
